According to PubChem BioAssay AID493014 (National Center for Advancing Translational Sciences (NCATS), 2011):
This is one part of the list. The main result of the screen is listed elsewhere. These columns were measured beside it and carry no call. Compounds called inactive in the main read-out are mostly missing here. The note in brackets gives the kind of curve behind each potency; many fits are weak.

Assay: qHTS Assay to Find Inhibitors of Chronic Active B-Cell Receptor Signaling
Conditions: ABC-DLBCL IkBa-CBG/CBR reporter, luminescence ratio (green luciferase fused to IkBa over red control in TMD8 lymphoma cells), 4 h
Method in brief: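 TMD8 human ABC-DLBCL cells with doxycycline-inducible IκBα–green luciferase fusion and unfused red luciferase, in 0.5% FBS medium; compounds up to 46 uM, 4 h at 37C. Green/red luminescence ratio, filter-overlap corrected, fitted to concentration-response curves.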

[1] = measured here: CBR red luminescence, cell number

SMILES | AC50 [1] | AC50 (measured here: IkBa-CBG green luminescence)
CCOC(=O)c1cc(-c2ccc(Cl)cc2)nc2onc(C)c12 | 7.31 µM [rising, partial curve] | 
Cc1ccc(NC(=O)c2ccc(=O)[nH]n2)cc1C | 35.5 µM [falling, single point] | 
Cc1nc(CCNC(=O)COc2ccccc2)cs1 | 18.4 µM [falling, single point] | 
Cc1ccc2nc(NC(=O)c3ccccc3F)sc2c1 | 2 µM [falling, full curve] | 
COc1ccccc1C(=O)OCC(=O)c1cccc([N+](=O)[O-])c1 | 16.4 µM [rising, single point] | 
O=C(Nc1ccccc1)N1CCN(c2ccccn2)CC1 | 10 µM [falling, partial curve, poor fit] | 
Cn1c(SCC(=O)c2ccccc2)nnc1-c1cccnc1 | 2.82 µM [rising, single point] | 
COc1ccc(CCNC(=O)C2CCN(S(=O)(=O)N3CCC(C)CC3)CC2)cc1OC | 12.6 µM [rising, partial curve, poor fit] | 
O=C(CSc1ccc(Cl)cc1)N1CCC(c2nc3ccccc3s2)CC1 | 35.5 µM [falling, single point] | 
Cc1ccc(NC(=O)C2CCCN2S(=O)(=O)c2cccc3cccnc23)cc1F (configuration not stated) | 2.59 µM [rising, single point] | 
CN(Cc1ccccc1)C(=O)CCS(=O)(=O)c1ccc2c(c1)n(C)c(=O)c(=O)n2C | 0.103 µM [falling, full curve, poor fit] | 
COc1cccc(NC(=O)CN(C)C(=O)c2cccc(S(=O)(=O)N3CCN(c4ccccc4)CC3)c2)c1 | 12.6 µM [falling, partial curve, poor fit] | 
C/C(CC(=O)Nc1ccc2c(c1)OCO2)=N\NC(=O)c1ccc(N)cc1 | 10 µM [falling, partial curve, poor fit] | 
CO/N=C\C(=N\Nc1ccc(OC)cc1)C(=O)c1ccccc1 | 1.84 µM [rising, partial curve, poor fit] | 
CCOc1cc(/C=C2\C(=N)N3N=C(S(=O)(=O)CC)SC3=NC2=O)ccc1OC(=O)c1ccco1 | 15.8 µM [rising, single point] | 
O=C(c1nc2ncccn2n1)N1CCN(c2ccc(F)cc2)CC1 | 18.4 µM [rising, single point] | 
O=c1c2ccccc2nc(N/N=C/c2ccc(O)cc2)n1O | 5.8 µM [falling, partial curve, poor fit] | 
COc1cccc(N(CC(=O)NCCSCc2ccc(Cl)cc2)S(C)(=O)=O)c1 | 35.5 µM [falling, single point] | 
CCNC(=S)N=Nc1c(O)[nH]c2ccc(C(C)C)cc12 | 23.1 µM [rising, partial curve] | 
C/C(=N\Nc1ncc(Cl)cc1Cl)c1ccc(S(=O)(=O)NCc2ccco2)cc1 | 2.06 µM [rising, partial curve, poor fit] | 18.4 µM [falling, single point]
COc1cccc(C(=O)NCCS(=O)(=O)NC(C)CCc2ccccc2)c1 (configuration not stated) | 23.1 µM [falling, single point] | 

SMILES | AC50 [1] | AC50 (measured here: IkBa-CBG green luminescence)
CCn1c(Sc2nc(C)nc3scc(-c4cccs4)c23)n[nH]c1=O | 7.08 µM [falling, partial curve, poor fit] | 
CCN(CC)CCCNC(=S)N1CCN(c2nc(-c3ccc(F)cc3)cs2)CC1 | 35.5 µM [falling, single point] | 
COc1cc(/C=C/c2cc(C(=O)O)c3ccccc3n2)cc(OC)c1O | 10 µM [falling, partial curve] | 
COc1cc(N(C)C)c([N+](=O)[O-])cc1C(=O)N1CCN(Cc2ccccc2)CC1 | 14.1 µM [falling, partial curve, poor fit] | 
CCOc1ccccc1OCC(=O)Nc1cccc(S(=O)(=O)N2CCCCCC2)c1 | 25.9 µM [falling, partial curve, poor fit] | 
CS(=O)(=O)c1ccc(NCCc2ccc(S(N)(=O)=O)cc2)c([N+](=O)[O-])c1 | 35.5 µM [falling, single point] | 
COc1ccccc1NC(C)=[N+](C)CCNS(=O)(=O)c1ccc(Cl)cc1 | 22.4 µM [falling, single point] | 
CCOC(=O)C1CCCN(C(=O)c2ccc(C)cc2O)C1 (configuration not stated) | 0.92 µM [rising, full curve, poor fit] | 
CCC(C)OC(=O)C(C)Oc1ccc(-c2ccccc2)cc1 (configuration not stated) | 25.9 µM [rising, partial curve, poor fit] | 
CC(=O)c1ccc(NC(=O)[C@@H]2CCCN2C(=O)OC(C)(C)C)cc1 | 35.5 µM [falling, single point] | 
Cn1nc(-c2ccc(Cl)cc2)c2cc(C(=O)NCc3ccco3)sc21 | 9.2 µM [falling, partial curve, poor fit] | 
COc1ccccc1-c1cc(C(=O)Nc2cc(C)nn2-c2ccccc2)no1 | 2.31 µM [falling, full curve] | 
CC(=O)Oc1ccc2nc(-c3cccs3)oc(=O)c2c1 | 4.47 µM [falling, partial curve] | 
CCOCCn1ccc2c(OCC(=O)Nc3ccccc3F)cccc2c1=O | 1.3 µM [falling, full curve] | 
CCOC(=O)C1=C(c2ccccc2)OC(N)=C(C#N)C1c1ccncc1 (configuration not stated) | 10 µM [falling, partial curve] | 
CCC(C)Sc1ccc(-c2nc3ccc(C)cn3c2NCc2ccccc2)cc1OC (configuration not stated) | 29.1 µM [falling, single point] | 
Cc1ccc(/C=C2\SC(N3CCCCC3)=NC2=O)cc1 | 0.631 µM [rising, full curve, poor fit] | 
O=C1C2C3C=CC(CC3)C2C(=O)N1c1ccccc1[N+](=O)[O-] (configuration not stated) | 20 µM [falling, partial curve] | 
O=C(N[C@@H](Cc1ccccc1)C(=O)OCc1ccccc1)c1nc[nH]c1C(=O)NCc1ccccc1 | 6.31 µM [rising, single point] | 
OC(COCc1ccc(Cl)cc1)CN1CCN(CC(O)COCc2ccc(Cl)cc2)CC1 (configuration not stated) | 32.6 µM [falling, single point] | 

Some of the entries above, reformatted:
SMILES	AC50 [1]	AC50 (measured here: IkBa-CBG green luminescence)
COc1ccccc1NC(C)=[N+](C)CCNS(=O)(=O)c1ccc(Cl)cc1	22.4 µM [falling, single point]	
CCOC(=O)C1CCCN(C(=O)c2ccc(C)cc2O)C1 (configuration not stated)	0.92 µM [rising, full curve, poor fit]	
